Reference: patent publication US6906239B2, “Plant preparations” (priority 2002, dated 2005)

Legend:
[1] = tested on: sugar cane plants; assay: Lignin staining of bagasse from sugar cane treated with modified precursors (Example 4); format: in vivo, Saccharum officinarum L.; conditions: 5 g drench to roots at 4 and 2 weeks before harvest, no fungus, scale 9 most intense to 0 no staining
[2] = tested on: Tulip trees; assay: Fungicidal candidates injected into Tulip tree seedlings: plant development, phytotoxicity, lignin staining (Example 12 i); format: in vivo, Liriodendron tulipifera; conditions: Tulip tree stem; 100 ppm application rate, injection, harvested after 4 weeks; no fungus; scale 9 to 0

SMILES	Lignin stain intensity [1]	Lignin Stain [2]	other results
O=C(O)C=Cc1c(F)cccc1F [2,6-Difluorocinnamic Acid]	8		Lignin stain intensity ([1]; listed as 2,6-difluorocinnamic acid): neither the addition of the normal, unmodified lignin precursor, cinnamic acid, nor the addition of halogenated, 2,6-difluorocinnamic acid resulted in increased staining
O=Cc1ccc(O)cc1Cl [2-Chloro-4-hydroxybenzaldehyde]	8		
O=Cc1cc(Br)c(O)c(Br)c1 [3,5-Dibromo-4-hydroxybenzaldehyde]	8		
O=C(O)C=Cc1cccc(Cl)c1 [3-Cholorcinnamic Acid, 3-Cholorcinnamic acid]	8		
COC(=O)Nc1nc2ccccc2[nH]1 [Carbendazim, methyl-2-benzimidazole carbamate]		9	
O=C(O)C=Cc1ccccc1 [Cinnamic Acid, reference compound]	8		Lignin stain intensity ([1]; listed as cinnamic acid): neither the addition of the normal, unmodified lignin precursor, cinnamic acid, nor the addition of halogenated, 2,6-difluorocinnamic acid resulted in increased staining
CCCC1COC(Cn2cncn2)(c2ccc(Cl)cc2Cl)O1 (centres unmarked) [Propiconazole, 1-[[2-(2,4-dichlorophenyl)-4-propyl-1,3-dioxolan-2-yl]methyl]-1H-1,2,4-triazole]		9	
c1ccc2[nH]c(-c3cscn3)nc2c1 [Thiabendazole, 2-(4-thiazolyl)benzimidazole]		9	
O=C(O)C(F)=Cc1ccccc1 [alpha-Fluorocinnamic Acid]	8		

Some values come without a unit; they compare only within their column.
